Assay [1] has as its target T1, Flag-UHRF1 (Ubiquitin-like PHD and RING finger domain-containing protein 1) (UniProt Q96T88).
T1 sequence: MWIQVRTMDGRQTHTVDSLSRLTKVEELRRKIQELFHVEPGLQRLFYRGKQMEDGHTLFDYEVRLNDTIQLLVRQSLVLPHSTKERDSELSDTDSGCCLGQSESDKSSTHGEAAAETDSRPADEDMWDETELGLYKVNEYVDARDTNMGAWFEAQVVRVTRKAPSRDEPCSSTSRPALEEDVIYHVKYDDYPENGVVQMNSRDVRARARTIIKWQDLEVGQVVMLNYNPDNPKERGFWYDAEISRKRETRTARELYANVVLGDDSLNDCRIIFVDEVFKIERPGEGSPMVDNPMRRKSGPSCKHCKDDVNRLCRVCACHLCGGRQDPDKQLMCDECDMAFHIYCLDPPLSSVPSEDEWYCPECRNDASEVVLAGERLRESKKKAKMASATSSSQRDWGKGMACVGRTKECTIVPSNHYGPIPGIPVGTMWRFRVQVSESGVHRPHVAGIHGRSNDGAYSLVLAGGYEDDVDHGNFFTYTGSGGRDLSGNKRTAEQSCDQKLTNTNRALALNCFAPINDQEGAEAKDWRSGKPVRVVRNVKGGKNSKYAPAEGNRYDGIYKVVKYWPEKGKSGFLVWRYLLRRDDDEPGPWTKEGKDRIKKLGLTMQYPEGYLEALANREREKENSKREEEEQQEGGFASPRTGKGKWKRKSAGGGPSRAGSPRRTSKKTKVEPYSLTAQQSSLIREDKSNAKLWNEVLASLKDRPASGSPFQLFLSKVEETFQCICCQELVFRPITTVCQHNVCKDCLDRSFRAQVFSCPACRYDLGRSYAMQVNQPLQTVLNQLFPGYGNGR
Description: co-IP; exogenous co-IP in 293T cells co-transfected with tagged UHRF1 and HIF-1α plasmids (whole or truncated), forward and reverse; 1000 µg lysate protein, 2 µg primary antibody overnight at 4 °C, Protein A/G beads, IgG as negative control.

By UniProt entry, the sequences of proteins in these tests, tags left out.
UniProt Q16665: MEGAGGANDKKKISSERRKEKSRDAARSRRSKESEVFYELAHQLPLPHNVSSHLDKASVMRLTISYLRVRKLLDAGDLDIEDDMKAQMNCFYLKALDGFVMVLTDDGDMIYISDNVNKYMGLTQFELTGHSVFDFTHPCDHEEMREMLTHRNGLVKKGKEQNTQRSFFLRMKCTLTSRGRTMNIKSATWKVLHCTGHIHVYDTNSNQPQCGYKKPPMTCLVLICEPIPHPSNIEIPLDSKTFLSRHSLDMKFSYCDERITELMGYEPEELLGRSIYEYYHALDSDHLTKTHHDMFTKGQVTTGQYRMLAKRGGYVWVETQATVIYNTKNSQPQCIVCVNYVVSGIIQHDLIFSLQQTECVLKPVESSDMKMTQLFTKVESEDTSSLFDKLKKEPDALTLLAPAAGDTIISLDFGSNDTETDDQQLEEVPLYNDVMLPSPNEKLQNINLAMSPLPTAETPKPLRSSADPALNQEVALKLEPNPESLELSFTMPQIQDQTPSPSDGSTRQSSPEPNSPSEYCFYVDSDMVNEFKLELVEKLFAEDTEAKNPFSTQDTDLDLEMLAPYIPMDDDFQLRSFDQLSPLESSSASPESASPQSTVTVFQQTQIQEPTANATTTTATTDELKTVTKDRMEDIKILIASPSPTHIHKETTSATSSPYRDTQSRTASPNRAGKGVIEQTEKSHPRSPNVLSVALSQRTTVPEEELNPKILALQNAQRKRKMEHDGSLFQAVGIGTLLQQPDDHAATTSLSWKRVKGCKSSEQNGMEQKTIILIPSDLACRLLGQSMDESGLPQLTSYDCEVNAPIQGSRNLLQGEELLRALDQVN

The target in assay [2] is T2, Ubiquitin-like PHD and RING finger domain-containing protein 1 (UHRF1), endogenous in SKOV3 cells (human (endogenous in SKOV3)) (UniProt Q96T88).
T2 sequence: T1 sequence
Description: co-IP; endogenous co-IP in SKOV3 cells; 1000 µg lysate protein in IP lysis buffer, 2 µg primary antibody overnight at 4 °C, Protein A/G beads, IgG as negative control.

The record followed here is paper PMC12552473.

No constants are given. Whether binding was seen depends on the method and setting. In cells and extracts the contact can be indirect. Some binding calls cover weakened binding; strength is not graded here. For some assays here: Tags and fused reporters may be left off the sequences shown.

On to “Myc-HIF-1α (hypoxia-inducible factor 1 α) (from UniProt Q16665 1-826)”, for which the binding result in assay [1] was “binds”. Regarding “Hypoxia-inducible factor 1 α (HIF-1α), endogenous in SKOV3 cells (from UniProt Q16665 1-826)”, the binding entry in assay [2] is “binds”.
